From patent US12059437B2, “Methods and compositions for hematopoietic stem cell mobilization” (The Regents of the University of California, priority 2019, dated 2024)
Where a name gives a salt, the structure may show the parent alone. For at least one compound, name, drawing or mass did not settle the structure.

System: HSCs (cKIT+lineage-SCA1+CD27+FLK2- cells)
Assay: HSC mobilization to the blood in mice (perfused blood, flow cytometry)
Format: in vivo, mouse
Protocol: FIG. 1A: Experimental design for 2-hour HSC mobilization with sildenafil citrate plus AMD3100 (top), or 5-day GCSF treatment (bottom). GCSF was administered to mice once daily for 4 days (250 μg/kg). Sildenafil citrate was administered via oral gavage (OG; 3 mg/kg) once, 1 hr prior to a single subcutaneous (SQ) injection of AMD3100 (2.5 mg/kg). […]
FIG. 2E: Experimental design for HSC mobilization with multiple daily doses of sildenafil citrate. Sildenafil citrate was administered orally (OG) at 10 mg/kg once daily for 3 days. AMD3100 (2.5 mg/kg-5 mg/kg) was injected subcutaneously (SQ) 1 hour after the third sildenafil citrate dose, followed 1 hour later by blood perfusion and analysis.
Mobilization/tissue isolation. Mice were treated with subcutaneous (SQ) injections of rhGCSF (Amgen, Thousand Oaks, CA, 250 μg/kg) or a single dose of AMD3100 (Sigma, 2.5 mg/kg or 5 mg/kg where specified), or by oral gavage (OG) with sildenafil citrate (Viagra®; Sigma; 3, 10 or 30 mg/kg) (Motta et al., 2015) as indicated. Maximum blood was obtained by perfusing the mouse with PBS/20 mM EDTA through the left ventricle, clipping the right atrium and collecting the pooled perfused blood in the chest cavity. The total blood was processed for cell counts and flow cytometry analysis, as described previously (Smith-Berdan et al., 2011, 2015). Briefly, cells were pelleted by centrifugation, washed with 2% donor calf serum in PBS to remove EDTA, then incubated with fluorescently conjugated antibodies for flow cytometry analysis or resuspended in HBSS for transplantation into conditioned recipients.
Flow cytometry. Cell labeling was performed on ice in 1× PBS with 5 mM EDTA and 2% serum. Antibodies used are listed in the supplemental table. Samples were analyzed for donor chimerism (detectable by either GFP or antibodies targeted at the CD45.1/2 locus) on an LSRII or AriaIII (Becton Dickinson, San Jose, CA), as described previously (Beaudin et al., 2016; Boyer et al., 2011, 2019; Leung et al., 2019; Smith-Berdan et al., 2011, 2015; Ugarte et al., 2015).

[1] = single dose 3 mg/kg oral gavage, blood 2 hrs post treatment

## CCCc1nn(C)c2c(=O)[nH]c(-c3cc(S(=O)(=O)N4CCN(C)CC4)ccc3OCC)nc12 [sildenafil citrate]
10 mg/kg, single dose as in FIG. 1A or for 3 consecutive days
  HSC mobilization: failed to mobilize significant numbers of HSCs
Sildenafil citrate alone
  HSPCs in the blood: did not lead to detectable increases in HSPCs
[1]
  HSCs in total perfused blood: did not lead to detectable increases in HSCs
  other hematopoietic cells (MPP, MyPro) in total perfused blood: did not lead to detectable increases
